These are yes or no findings as the source states them, for the method shown. Some binding calls cover weakened binding; strength is not graded here.
Biological target: P. dejongeii BtubAB heterodimer (wild type) (P. dejongeii) (UniProt Q8GCC5+Q8GCC1)
Experiment: negative-stain electron microscopy; micrographs of negatively stained polymers of WT BtubAB and of BtubA*B; both purified

By UniProt entry, the sequences of proteins in these tests, tags left out. Where a name states a change or a piece, a line headed by the entry shows the natural chain unless it says otherwise.
UniProt Q8GCC5: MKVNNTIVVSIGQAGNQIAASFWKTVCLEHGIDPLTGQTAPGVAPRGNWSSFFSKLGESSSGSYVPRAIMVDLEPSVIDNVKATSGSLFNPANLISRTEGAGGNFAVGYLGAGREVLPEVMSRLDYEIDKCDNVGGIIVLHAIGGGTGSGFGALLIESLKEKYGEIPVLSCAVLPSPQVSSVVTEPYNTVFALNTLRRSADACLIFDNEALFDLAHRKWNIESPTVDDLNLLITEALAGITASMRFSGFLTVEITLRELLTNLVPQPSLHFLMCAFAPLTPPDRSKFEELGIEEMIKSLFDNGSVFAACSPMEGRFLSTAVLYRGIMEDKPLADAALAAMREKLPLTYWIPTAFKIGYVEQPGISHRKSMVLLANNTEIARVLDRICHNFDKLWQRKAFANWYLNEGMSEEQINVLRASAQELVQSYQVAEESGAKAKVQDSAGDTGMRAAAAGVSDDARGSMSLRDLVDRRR
UniProt Q8GCC1: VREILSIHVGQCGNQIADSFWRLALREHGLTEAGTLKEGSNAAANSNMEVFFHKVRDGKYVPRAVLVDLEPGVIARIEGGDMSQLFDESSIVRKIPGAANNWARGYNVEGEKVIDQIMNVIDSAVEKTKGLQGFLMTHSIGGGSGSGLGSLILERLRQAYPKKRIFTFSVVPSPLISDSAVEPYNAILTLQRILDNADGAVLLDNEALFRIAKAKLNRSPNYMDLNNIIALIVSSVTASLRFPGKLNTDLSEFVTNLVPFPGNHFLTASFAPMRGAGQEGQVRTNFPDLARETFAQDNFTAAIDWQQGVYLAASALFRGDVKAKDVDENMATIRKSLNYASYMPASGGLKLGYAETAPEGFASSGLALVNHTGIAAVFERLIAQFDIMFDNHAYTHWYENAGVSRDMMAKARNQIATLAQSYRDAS

Substance: P. dejongeii BtubAB heterodimer (wild type) (from UniProt Q8GCC5 1-473; Q8GCC1 1-426) (complex)
- binding: binds
